Test results: PubChem BioAssay AID602313 (National Center for Advancing Translational Sciences (NCATS), 2012)
About 760 (0.19%) of roughly 390,000 compounds were called active. The inconclusive results got no clear call from the source; some entries with a clear call stand among them for comparison. Calls follow the shape of the dose curve; as a rule, active = well fitted inhibition curve with a large enough effect; inconclusive = small, poorly fitted or top-dose-only effect; inactive = flat fitted curve, though single readings scatter. A potency beside an inconclusive call is a rough fit, not a confirmed value.
Potency is read from the fitted curve at half-maximal effect.

Experiment: qHTS for Inhibitors of Vif-A3F Interactions: qHTS; also: nearly all actives have a fitted effect of over 65% in size; as to activity, negative = active: % of control where 0% means no effect
Settings: HeLa A3F-eYFP + Vif (tagged APOBEC3F with the HIV-1 protein that degrades it), YFP fluorescence increase; series mostly up to 46.1 µM; activity, negative = active: at the top concentration
Outline: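 HeLa cells stably expressing A3F-eYFP plus Vif, plated and incubated overnight at 37 deg C, then exposed to compounds overnight at 37 deg C. Blocked degradation read as raised yellow fluorescence (Ex 488/Em 500-530).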
In the case of OCCCn1c(C2CCCN2c2nc(-c3ccc(F)cc3)cs2)nc2cc(C(F)(F)F)ccc21 (stereo unspecified), the Potency is reported as inconclusive: 22.4 µM [inhibitor, single point].
With S=C(Nc1nc2c(s1)CCCC2)NC1CC1 the Potency was inconclusive: 3.16 µM [inhibitor, partial curve, poor fit].
In the case of CCN1CCCC1CNCc1ccc(OCc2ccc(Cl)nc2)c(OC)c1 (stereo unspecified), the “activity, negative = active” value is reported as inactive: -10.6%.
With CCN(C(=O)CN1c2ccccc2CC1C)c1c(N)n(Cc2ccccc2)c(=O)[nH]c1=O (stereo unspecified) the Potency was inconclusive: 35.5 µM [inhibitor, single point].
With CCCc1c(C(=O)N/N=C/c2cccc3ccccc23)nnn1-c1nonc1N the Potency was inconclusive: 3.16 µM [inhibitor, single point].
For N#CC1=C2SCN(Cc3ccccc3)CN2C(=O)CC1c1ccc2c(c1)OCO2 (stereo unspecified), the “activity, negative = active” value was inactive: -6.03%.
For COc1ccc(-c2cc(C(F)F)n3ncc(C(=O)n4ccnc4C)c3n2)cc1, the Potency was inconclusive: 3.16 µM [inhibitor, single point].
In the case of CC(=O)Oc1ccc(/C=C2/Oc3ccccc3C2=O)cc1, the Potency is reported as inconclusive: 35.5 µM [inhibitor, single point].
For Nc1ccccc1N=Cc1ccc(-c2cccc(Cl)c2)o1, the Potency was inconclusive: 35.5 µM [inhibitor, single point].
For CCC(=O)Nc1ccc(-c2cc(-c3ccccc3)nc(-c3ccc(NC(=O)CC)cc3)n2)cc1, the Potency was inconclusive: 22.4 µM [inhibitor, single point].
For Cc1nc2nc(C)c(NS(=O)(=O)c3ccc(CC(C)C)cc3)c(=O)n2[nH]1, the Potency was inconclusive: 5.62 µM [inhibitor, single point].
With COc1ccc(/C=C/C(=O)NC(=S)NNC(=O)Cc2cccs2)cc1 the Potency was inconclusive: 25.1 µM [inhibitor, single point].
For CN(C)CCN(C(=O)c1cccs1)c1nc2cc3c(cc2s1)OCCO3, the Potency was inconclusive: 4.47 µM [inhibitor, partial curve].
For CCc1ccc(S(=O)(=O)Nc2cc(SCC(=O)O)c(O)c3ccccc23)cc1, the Potency was inconclusive: 14.1 µM [inhibitor, single point].
With COc1ccc(C)cc1NC(=O)c1nnn(-c2c(C)cccc2C)c1C the “activity, negative = active” value was inactive: 1.48%.
For CCC(COC(C)=O)Nc1nc2c([nH]1)c(=O)n(C)c(=O)n2C (stereo unspecified), the Potency was inconclusive: 31.6 µM [inhibitor, single point].
In the case of CCOc1ccccc1NC(=O)CSc1nnc2ccc(-c3ccccn3)nn12, the Potency is reported as inconclusive: 35.5 µM [inhibitor, single point].
With O=C(NCC(c1ccco1)N1CCOCC1)C1CCCCC1 (stereo unspecified) the Potency was inconclusive: 20 µM [inhibitor, single point].
For CC(C)c1nnc(N2C(=O)C(O)=C(C(=O)c3cccs3)C2c2ccccc2)s1 (stereo unspecified), the Potency was inconclusive: 3.98 µM [inhibitor, partial curve, poor fit].
With O=C(/C=C/c1ccco1)Nc1cccc2cccnc12 the Potency was inconclusive: 28.2 µM [inhibitor, single point].
With O=S(=O)(Nc1nc2ccccc2nc1-[n+]1ccccc1)c1ccc(Cl)cc1 the “activity, negative = active” value was inactive: -23.2%.
For CCOC(=O)C1CCCN(c2c(C(=O)c3ccccc3)cnc3ccc(F)cc23)C1 (stereo unspecified), the “activity, negative = active” value was inactive: 7.55%.
For CCN1CCN(C(=S)Nc2ccc3nc4n(c(=O)c3c2)CCCCC4)CC1, the Potency was inconclusive: 6.31 µM [inhibitor, single point].
With NS(=O)(=O)c1ccc(NNC(=O)c2sccc2Cl)cc1 the Potency was inconclusive: 22.4 µM [inhibitor, single point].
In the case of CCN(CC)c1ccc(/C=N/n2c(-c3ccccc3Br)n[nH]c2=S)cc1, the “activity, negative = active” value is reported as inactive: 4.26%.
With COc1ccc2sc(N(CCCN(C)C)C(=O)c3nc4ccccc4s3)nc2c1 the Potency was inconclusive: 35.5 µM [inhibitor, single point].
For O=C(Oc1ccc2c(=O)c(Cl)coc2c1)c1cccnc1, the “activity, negative = active” value was inactive: -9.53%.
With O=C(Nc1nc2c(F)cccc2s1)c1ccc([N+](=O)[O-])o1 the Potency was inconclusive: 3.55 µM [inhibitor, full curve, poor fit].
With O=C(CN1C(=O)COc2ccc(S(=O)(=O)N3CCCCCC3)cc21)N1CCN(c2ccc(F)cc2)CC1 the “activity, negative = active” value was inactive: 3.87%.
In the case of CCOC(=O)c1c(C)[nH]c(C(=O)OCC(O)=C(C#N)c2nc3ccccc3[nH]2)c1C, the Potency is reported as inconclusive: 25.1 µM [inhibitor, single point].
In the case of NC(=O)c1ccccc1NC(=O)CS(=O)(=O)Cc1ccccc1, the “activity, negative = active” value is reported as inactive: 2.68%.
For O=C(/C=C/Nc1ccccc1O)c1ccco1, the Potency was inconclusive: 10 µM [inhibitor, partial curve, poor fit].
With COC(=O)C1CCN(CC(=O)NC(=O)NC2CCCCC2)CC1 the Potency was inconclusive: 6.31 µM [inhibitor, single point].
For COc1cccc(NC(=S)NC(=O)c2cncc(Br)c2)c1, the Potency was inconclusive: 28.2 µM [inhibitor, single point].
With O=C1C=C(C#Cc2ccc(Oc3ccccc3)cc2)C[C@@H](c2ccc(F)cc2)C1 the “activity, negative = active” value was inactive: -0.698%.
In the case of CCCCNC(=O)Nc1nc2ccccc2s1, the “activity, negative = active” value is reported as inactive: 2.11%.
For Cc1ccc(N=CC2=C(O)CC(c3ccc(Cl)cc3)CC2=O)cc1 (stereo unspecified), the Potency was inconclusive: 15.8 µM [inhibitor, partial curve, poor fit].
For O=C(CCCn1nnnc1CN1CCOCC1)N1CCC(c2ccc(F)cc2)C1 (stereo unspecified), the Potency was inconclusive: 6.31 µM [inhibitor, single point].
In the case of Cc1ccc2c(c1)N(C(=O)CCC(=O)NCc1ccccc1Cl)CC(C)O2 (stereo unspecified), the “activity, negative = active” value is reported as inactive: 4.24%.
In the case of CCOc1ccc(CCNC(=O)COC(=O)c2cccc(S(=O)(=O)N3CCCCC3)c2)cc1OCC, the Potency is reported as inconclusive: 20 µM [inhibitor, single point].
In the case of CCn1cc(C(=O)NCc2ccccc2Cl)c(=O)c2cc(S(=O)(=O)N3CCc4ccccc4C3)ccc21, the “activity, negative = active” value is reported as inactive: 4.1%.
In the case of CN1CCc2c(sc3c2C(=O)NC(c2cn(Cc4ccccc4)c4ccccc24)N3)C1 (stereo unspecified), the Potency is reported as inconclusive: 12.6 µM [inhibitor, single point].
In the case of CCOC(=O)Cn1c(=NC(=O)c2ccc([N+](=O)[O-])s2)sc2ccccc21, the Potency is reported as inconclusive: 10 µM [inhibitor, partial curve, poor fit].
With COc1ccc(-c2nn3c(-c4ccccc4C)nnc3c3ccccc23)cc1 the “activity, negative = active” value was inactive: 0.221%.
In the case of CC(=O)Nc1ccc(NC(=O)COC(=O)[C@@H]2CCCN2C(=O)c2cccs2)cc1, the Potency is reported as inconclusive: 22.4 µM [inhibitor, partial curve, poor fit].
In the case of Cc1cc(Cl)c2ccccc2n1, the Potency is reported as inconclusive: 10 µM [inhibitor, partial curve].
For CC(C)(C)c1ccc(N=C2SCC(=O)N2Cc2cccs2)cc1, the “activity, negative = active” value was inactive: -12.5%.
With CC(C)(C)OC(=O)NCc1ccc(NC(=O)c2nc[nH]c2C(=O)NCCNC(=O)c2[nH]cnc2C(=O)Nc2ccc(CNC(=O)OC(C)(C)C)cc2)cc1 the Potency was inconclusive: 11.2 µM [inhibitor, partial curve, poor fit].
In the case of CC(=O)N1CCc2nc3sc(C(=O)Nc4ccc(Cl)cc4F)c(N)c3c(C(F)(F)F)c2C1, the Potency is reported as inconclusive: 2.82 µM [inhibitor, partial curve, poor fit].
With CC(=O)c1ccc(NC(=O)CN2c3cccc4cccc(c34)S2(=O)=O)cc1 the Potency was inconclusive: 2.82 µM [inhibitor, partial curve, poor fit].
For Cc1ccc(COc2ccc3c(c2)OCO3)cc1, the Potency was inconclusive: 35.5 µM [inhibitor, single point].
In the case of CCN1CC=C2C(C#N)=C(N)C(C#N)(C#N)[C@H](c3ccoc3)[C@H]2C1, the Potency is reported as inconclusive: 11.2 µM [inhibitor, partial curve, poor fit].
With Oc1ccc(Nc2nc(-c3ccccc3O)nc3ccccc23)cc1 the “activity, negative = active” value was inactive: 13.1%.
In the case of COc1ccc(CC(=O)OCc2csc(CC(=O)Nc3ccc(C)cc3)n2)cc1, the Potency is reported as inconclusive: 5.62 µM [inhibitor, single point].
For Cc1ccc2nc(CSc3nc(C)nc4c3oc3ccccc34)[nH]c2c1, the Potency was inconclusive: 35.5 µM [inhibitor, single point].
With C#CCOC(=O)Nc1ccc(OCC(F)(F)F)nc1 the Potency was inconclusive: 35.5 µM [inhibitor, partial curve, poor fit].
With CN1CCc2c(sc3nc(SCC(N)=O)n(-c4ccc(Cl)cc4)c(=O)c23)C1 the Potency was inconclusive: 11.2 µM [inhibitor, partial curve, poor fit].
In the case of Cc1ccc(C2=NN(S(C)(=O)=O)C(c3ccc4c(c3)OCO4)C2)cc1 (stereo unspecified), the Potency is reported as inconclusive: 35.5 µM [inhibitor, single point].
For Cc1ccc(NC(=O)CSc2nc3ccccc3nc2N2CCOCC2)cc1, the Potency was inconclusive: 35.5 µM [inhibitor, single point].
With Cc1ccc(-c2cc(C(=O)N/N=C/C(Br)=C/c3ccccc3)n[nH]2)o1 the “activity, negative = active” value was inactive: -0.484%.
For COc1ccc(C2C(C(=O)c3ccco3)=C(O)C(=O)N2CCOCCO)cc1OC (stereo unspecified), the “activity, negative = active” value was inactive: -1.9%.
In the case of Cc1c(C(=O)O)sc2nc(CSc3nnc(-c4ccc(F)cc4)n3C)[nH]c(=O)c12, the Potency is reported as inconclusive: 35.5 µM [inhibitor, single point].
With CCOC(=O)c1sc2nc(C)nc(NCc3ccc(F)cc3)c2c1C the Potency was inconclusive: 35.5 µM [inhibitor, single point].
For COc1cccc(CSc2nc3ccccc3cc2C=O)c1, the “activity, negative = active” value was inactive: -5.82%.
In the case of CC(=O)Nc1ccc(S(=O)(=O)Oc2cccc(N3C(=O)C4CCCCC4C3=O)c2)cc1 (stereo unspecified), the Potency is reported as inconclusive: 3.55 µM [inhibitor, single point].
For CC(=O)c1ccc(Nc2ncnc3ccc(Br)cc23)cc1, the Potency was inconclusive: 22.4 µM [inhibitor, single point].
